In patent US20110311601A1, “ANTIMICROBIAL MEDICAL DEVICES” (priority 2010, published 2011):
Results are given in words; binding and its absence hold for the method and conditions named. Some binding calls cover weakened binding; strength is not graded here.

Protein sequences, listed by entry. Tags and fused reporters are not part of them. Lines headed by an entry give the natural chain unless they say otherwise; changes in a name come on top.
UniProt P02453: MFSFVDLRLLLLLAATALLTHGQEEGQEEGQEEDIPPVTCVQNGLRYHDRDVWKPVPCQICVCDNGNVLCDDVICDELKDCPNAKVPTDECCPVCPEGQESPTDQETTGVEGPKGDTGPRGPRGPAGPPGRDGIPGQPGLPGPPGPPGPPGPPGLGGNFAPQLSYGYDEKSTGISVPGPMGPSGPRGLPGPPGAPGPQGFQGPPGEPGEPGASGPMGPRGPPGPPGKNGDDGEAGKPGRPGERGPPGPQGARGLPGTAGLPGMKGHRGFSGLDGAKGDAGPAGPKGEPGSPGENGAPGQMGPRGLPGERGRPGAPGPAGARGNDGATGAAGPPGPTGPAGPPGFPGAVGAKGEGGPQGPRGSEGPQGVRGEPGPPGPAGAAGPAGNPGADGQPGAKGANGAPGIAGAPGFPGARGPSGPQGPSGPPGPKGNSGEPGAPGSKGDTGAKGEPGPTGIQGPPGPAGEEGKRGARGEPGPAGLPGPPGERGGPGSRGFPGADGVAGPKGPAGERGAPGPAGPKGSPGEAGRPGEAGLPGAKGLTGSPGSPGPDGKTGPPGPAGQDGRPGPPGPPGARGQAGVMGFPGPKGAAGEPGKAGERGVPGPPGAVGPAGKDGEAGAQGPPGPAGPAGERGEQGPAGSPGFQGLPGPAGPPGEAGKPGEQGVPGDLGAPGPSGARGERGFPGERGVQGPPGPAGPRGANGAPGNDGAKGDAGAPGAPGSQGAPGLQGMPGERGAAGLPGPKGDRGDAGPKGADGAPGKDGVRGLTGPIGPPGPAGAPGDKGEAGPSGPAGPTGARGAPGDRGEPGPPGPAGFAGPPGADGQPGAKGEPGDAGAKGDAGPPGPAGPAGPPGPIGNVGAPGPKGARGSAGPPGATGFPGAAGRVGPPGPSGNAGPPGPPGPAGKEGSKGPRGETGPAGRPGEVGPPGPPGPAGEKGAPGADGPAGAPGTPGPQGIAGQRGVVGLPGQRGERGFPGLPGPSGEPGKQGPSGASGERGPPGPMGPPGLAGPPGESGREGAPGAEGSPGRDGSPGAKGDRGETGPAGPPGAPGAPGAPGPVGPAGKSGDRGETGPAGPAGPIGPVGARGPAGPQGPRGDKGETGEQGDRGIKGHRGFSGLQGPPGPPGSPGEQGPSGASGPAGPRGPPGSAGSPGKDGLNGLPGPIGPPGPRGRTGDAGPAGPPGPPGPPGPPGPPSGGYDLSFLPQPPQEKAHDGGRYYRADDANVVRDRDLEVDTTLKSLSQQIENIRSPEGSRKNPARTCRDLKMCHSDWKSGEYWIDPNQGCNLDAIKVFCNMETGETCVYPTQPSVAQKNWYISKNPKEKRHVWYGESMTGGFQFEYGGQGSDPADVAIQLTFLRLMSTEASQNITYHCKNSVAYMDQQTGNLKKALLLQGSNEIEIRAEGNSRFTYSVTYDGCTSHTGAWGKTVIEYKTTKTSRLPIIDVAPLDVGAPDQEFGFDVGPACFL
UniProt P02465: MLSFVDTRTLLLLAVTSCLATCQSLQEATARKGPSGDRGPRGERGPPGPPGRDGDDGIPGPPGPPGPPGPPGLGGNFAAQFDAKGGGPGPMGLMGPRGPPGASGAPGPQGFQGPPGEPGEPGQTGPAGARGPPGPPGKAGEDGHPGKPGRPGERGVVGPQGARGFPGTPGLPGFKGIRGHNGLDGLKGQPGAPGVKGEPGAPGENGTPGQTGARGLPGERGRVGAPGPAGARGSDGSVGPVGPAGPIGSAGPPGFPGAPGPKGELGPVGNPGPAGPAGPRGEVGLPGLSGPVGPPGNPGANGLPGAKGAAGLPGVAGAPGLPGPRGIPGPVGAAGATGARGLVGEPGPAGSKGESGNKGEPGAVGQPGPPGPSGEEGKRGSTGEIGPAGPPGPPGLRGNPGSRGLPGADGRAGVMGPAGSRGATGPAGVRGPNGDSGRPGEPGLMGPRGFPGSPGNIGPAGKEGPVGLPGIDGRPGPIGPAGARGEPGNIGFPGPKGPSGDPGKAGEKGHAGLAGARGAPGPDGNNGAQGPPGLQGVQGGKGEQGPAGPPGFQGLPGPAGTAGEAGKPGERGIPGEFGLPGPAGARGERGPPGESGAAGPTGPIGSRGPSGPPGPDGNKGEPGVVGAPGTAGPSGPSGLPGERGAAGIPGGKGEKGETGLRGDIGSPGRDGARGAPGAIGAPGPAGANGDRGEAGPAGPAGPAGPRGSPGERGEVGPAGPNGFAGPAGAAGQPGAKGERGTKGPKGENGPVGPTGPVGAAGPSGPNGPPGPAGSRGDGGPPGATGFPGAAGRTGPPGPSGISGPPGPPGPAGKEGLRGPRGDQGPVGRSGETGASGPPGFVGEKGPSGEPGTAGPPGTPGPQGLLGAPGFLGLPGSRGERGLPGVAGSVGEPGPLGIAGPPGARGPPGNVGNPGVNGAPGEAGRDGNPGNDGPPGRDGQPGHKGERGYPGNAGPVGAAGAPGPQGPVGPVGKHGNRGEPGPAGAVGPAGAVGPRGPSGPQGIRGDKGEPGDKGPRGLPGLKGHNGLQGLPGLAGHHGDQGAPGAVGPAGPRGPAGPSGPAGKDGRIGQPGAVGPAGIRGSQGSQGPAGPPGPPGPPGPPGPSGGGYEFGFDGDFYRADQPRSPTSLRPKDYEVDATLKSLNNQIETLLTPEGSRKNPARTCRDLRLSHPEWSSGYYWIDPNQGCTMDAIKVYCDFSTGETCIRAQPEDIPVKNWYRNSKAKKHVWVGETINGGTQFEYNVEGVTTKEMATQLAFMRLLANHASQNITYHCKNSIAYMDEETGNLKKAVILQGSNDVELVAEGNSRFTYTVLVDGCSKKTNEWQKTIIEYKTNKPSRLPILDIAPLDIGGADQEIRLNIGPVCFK

How the values were obtained:
[1] = target: T1, collagen scaffold (bovine collagen type I) (bovine) (UniProt P02453+P02465); experiment: agar diffusion assay, release from hβD2-coated collagen scaffold
[2] = target: T1, collagen scaffold (bovine collagen type I) (bovine); experiment: microdilution assay, release kinetics from hβD2-coated collagen scaffolds

For GIGDPVTCLKSGAICHPVFCPRRYKQIGTCGLPGTKCCKKP [human β-defensin-2], the binding [1] was “binds” and the binding [2] was “binds”.
